Test results reported in the supplement of paper PMC10849652.
Some of the results follow.

Sequences of proteins named here, by UniProt entry; tags and fusion partners are left off. A change or cut given only in a name is not applied to a line headed by its entry.
UniProt O00592: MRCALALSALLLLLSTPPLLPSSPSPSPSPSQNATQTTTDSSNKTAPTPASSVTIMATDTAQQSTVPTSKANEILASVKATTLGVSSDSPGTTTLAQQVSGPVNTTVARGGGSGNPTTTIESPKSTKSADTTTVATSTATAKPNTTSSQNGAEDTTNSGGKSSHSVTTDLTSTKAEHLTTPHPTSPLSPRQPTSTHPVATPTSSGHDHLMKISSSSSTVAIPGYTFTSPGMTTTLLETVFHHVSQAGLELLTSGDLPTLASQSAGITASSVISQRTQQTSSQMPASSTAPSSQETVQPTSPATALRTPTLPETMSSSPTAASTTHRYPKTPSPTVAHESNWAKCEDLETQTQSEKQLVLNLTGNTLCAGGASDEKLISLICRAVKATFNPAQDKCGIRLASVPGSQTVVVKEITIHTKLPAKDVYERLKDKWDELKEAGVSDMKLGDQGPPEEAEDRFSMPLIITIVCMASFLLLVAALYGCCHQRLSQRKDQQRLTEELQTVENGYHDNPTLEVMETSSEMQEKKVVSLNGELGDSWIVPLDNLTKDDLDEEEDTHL
UniProt O75688: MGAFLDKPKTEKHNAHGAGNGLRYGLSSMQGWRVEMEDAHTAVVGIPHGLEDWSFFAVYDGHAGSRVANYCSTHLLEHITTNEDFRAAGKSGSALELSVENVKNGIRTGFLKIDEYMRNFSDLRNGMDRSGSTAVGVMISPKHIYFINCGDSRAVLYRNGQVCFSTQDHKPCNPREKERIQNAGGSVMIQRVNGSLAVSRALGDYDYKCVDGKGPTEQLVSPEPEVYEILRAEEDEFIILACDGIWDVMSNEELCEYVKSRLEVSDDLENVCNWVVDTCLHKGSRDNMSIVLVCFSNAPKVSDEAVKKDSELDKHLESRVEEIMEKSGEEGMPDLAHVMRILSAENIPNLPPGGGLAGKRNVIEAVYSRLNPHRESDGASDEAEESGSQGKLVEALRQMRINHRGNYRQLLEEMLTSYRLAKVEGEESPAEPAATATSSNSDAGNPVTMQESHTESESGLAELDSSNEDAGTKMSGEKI
UniProt Q9NW61: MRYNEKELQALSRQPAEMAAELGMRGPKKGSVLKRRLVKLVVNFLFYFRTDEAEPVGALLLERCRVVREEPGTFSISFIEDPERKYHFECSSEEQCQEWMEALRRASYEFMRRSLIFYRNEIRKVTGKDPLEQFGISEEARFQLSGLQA
UniProt Q68D20: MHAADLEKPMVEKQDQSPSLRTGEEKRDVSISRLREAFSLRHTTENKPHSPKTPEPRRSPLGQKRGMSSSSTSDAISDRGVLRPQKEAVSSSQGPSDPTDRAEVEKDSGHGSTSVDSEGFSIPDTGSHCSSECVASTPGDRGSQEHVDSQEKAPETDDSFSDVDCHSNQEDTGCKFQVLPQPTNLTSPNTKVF
UniProt P55058, whole entry, looked up: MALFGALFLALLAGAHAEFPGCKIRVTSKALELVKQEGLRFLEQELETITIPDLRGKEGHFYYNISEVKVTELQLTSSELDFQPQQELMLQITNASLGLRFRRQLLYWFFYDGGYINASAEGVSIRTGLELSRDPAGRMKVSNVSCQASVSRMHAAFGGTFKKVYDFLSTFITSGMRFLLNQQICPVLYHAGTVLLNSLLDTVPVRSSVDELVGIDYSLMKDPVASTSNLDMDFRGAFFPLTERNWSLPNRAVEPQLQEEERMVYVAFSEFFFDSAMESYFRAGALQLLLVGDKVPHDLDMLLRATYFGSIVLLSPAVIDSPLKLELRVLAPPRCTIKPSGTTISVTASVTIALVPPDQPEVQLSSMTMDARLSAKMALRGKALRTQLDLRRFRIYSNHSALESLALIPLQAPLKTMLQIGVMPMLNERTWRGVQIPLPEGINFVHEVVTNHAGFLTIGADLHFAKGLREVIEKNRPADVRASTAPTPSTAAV
UniProt Q9Y6A1: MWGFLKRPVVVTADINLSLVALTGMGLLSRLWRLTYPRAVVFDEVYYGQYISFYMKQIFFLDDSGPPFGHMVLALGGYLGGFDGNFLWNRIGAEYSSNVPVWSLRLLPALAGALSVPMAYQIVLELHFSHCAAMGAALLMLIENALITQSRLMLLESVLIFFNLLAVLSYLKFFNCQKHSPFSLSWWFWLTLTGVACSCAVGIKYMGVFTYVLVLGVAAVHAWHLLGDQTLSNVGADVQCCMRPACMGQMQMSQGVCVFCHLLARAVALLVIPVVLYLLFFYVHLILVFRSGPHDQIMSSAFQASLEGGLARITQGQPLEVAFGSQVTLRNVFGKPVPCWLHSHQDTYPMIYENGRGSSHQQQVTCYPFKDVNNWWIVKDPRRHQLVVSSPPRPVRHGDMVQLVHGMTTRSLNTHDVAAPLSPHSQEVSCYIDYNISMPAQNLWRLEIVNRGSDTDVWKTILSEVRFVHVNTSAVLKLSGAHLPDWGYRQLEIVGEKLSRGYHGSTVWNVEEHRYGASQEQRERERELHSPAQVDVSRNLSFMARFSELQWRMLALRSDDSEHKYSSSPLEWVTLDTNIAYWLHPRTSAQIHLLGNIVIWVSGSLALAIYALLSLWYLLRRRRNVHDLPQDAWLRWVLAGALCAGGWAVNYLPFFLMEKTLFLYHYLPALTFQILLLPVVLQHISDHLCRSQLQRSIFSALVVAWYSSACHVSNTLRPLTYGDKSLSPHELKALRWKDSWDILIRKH
UniProt Q8IYS1: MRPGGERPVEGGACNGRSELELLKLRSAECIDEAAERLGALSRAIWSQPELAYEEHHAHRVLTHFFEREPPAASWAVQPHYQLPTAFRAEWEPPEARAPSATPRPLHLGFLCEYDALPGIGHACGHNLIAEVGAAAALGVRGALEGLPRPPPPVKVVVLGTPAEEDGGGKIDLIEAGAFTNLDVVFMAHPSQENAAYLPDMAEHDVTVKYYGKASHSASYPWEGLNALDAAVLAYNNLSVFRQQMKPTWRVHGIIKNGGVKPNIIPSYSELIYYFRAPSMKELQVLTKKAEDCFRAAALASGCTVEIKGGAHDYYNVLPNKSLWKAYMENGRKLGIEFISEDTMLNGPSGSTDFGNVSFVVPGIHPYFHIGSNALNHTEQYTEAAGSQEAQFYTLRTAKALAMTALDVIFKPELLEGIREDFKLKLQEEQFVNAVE
UniProt Q9NUX5: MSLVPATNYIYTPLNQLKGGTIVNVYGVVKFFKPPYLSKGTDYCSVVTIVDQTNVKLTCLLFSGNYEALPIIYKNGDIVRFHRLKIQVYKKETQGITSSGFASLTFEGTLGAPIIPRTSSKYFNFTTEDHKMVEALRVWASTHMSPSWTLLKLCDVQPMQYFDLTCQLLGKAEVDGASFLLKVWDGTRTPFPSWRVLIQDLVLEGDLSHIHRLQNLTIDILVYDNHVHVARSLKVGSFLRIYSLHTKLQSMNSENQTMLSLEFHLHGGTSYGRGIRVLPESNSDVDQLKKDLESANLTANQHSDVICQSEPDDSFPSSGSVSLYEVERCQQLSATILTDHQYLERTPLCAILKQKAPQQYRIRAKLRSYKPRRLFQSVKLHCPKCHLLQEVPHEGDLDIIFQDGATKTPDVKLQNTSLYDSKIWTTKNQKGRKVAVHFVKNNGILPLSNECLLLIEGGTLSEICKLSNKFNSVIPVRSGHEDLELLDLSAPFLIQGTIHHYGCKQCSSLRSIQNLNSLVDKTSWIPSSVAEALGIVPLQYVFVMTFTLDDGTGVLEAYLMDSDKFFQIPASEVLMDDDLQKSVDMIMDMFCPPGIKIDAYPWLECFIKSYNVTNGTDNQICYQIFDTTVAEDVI
UniProt Q9Y4D7: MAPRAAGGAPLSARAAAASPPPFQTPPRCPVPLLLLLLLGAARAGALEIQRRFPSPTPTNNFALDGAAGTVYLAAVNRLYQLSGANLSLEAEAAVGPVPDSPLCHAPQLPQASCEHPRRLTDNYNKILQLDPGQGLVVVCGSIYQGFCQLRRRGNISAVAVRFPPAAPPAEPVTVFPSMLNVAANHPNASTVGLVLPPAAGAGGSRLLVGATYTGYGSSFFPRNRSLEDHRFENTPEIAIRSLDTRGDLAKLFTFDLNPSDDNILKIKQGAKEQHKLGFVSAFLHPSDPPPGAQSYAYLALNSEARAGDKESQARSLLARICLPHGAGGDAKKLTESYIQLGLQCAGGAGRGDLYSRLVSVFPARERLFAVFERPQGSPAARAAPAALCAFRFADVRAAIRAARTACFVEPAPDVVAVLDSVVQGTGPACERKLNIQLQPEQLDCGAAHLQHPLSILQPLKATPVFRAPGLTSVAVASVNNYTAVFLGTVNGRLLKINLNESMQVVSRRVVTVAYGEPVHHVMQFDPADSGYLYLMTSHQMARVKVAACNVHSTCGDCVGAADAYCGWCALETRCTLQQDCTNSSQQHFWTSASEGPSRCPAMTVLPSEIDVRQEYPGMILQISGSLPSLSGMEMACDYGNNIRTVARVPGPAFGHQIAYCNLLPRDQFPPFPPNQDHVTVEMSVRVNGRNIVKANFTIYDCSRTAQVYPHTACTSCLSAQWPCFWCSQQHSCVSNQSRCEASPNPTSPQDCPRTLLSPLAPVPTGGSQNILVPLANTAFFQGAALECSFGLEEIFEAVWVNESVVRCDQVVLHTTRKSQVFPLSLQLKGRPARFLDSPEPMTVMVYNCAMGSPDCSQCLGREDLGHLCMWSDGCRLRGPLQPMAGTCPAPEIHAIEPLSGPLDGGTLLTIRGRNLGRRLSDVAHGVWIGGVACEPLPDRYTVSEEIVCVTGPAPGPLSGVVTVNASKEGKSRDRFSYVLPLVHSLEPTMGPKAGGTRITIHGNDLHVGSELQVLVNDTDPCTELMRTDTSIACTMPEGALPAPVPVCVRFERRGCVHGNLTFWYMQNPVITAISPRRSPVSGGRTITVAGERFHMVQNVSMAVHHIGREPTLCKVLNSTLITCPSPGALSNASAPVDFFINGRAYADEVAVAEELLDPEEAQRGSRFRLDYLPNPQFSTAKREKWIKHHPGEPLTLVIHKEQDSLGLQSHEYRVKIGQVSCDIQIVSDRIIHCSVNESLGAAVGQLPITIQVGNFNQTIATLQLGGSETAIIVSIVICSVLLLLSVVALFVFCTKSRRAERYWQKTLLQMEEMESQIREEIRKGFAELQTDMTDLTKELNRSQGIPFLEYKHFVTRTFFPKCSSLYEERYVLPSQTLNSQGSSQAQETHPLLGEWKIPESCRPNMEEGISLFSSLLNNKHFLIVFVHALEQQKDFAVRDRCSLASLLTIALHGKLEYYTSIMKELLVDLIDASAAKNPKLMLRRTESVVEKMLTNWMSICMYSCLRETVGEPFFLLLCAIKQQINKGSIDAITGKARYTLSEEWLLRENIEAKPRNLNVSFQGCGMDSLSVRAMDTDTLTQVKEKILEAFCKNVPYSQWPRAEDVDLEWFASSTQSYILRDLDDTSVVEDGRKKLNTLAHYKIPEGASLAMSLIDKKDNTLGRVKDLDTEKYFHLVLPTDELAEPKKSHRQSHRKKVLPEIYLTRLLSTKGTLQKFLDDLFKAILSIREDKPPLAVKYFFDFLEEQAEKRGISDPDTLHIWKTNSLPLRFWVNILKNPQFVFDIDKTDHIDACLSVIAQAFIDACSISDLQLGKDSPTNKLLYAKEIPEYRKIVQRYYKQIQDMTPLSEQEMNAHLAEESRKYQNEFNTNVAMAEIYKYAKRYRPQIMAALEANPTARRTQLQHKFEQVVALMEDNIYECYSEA
UniProt Q8NEY8: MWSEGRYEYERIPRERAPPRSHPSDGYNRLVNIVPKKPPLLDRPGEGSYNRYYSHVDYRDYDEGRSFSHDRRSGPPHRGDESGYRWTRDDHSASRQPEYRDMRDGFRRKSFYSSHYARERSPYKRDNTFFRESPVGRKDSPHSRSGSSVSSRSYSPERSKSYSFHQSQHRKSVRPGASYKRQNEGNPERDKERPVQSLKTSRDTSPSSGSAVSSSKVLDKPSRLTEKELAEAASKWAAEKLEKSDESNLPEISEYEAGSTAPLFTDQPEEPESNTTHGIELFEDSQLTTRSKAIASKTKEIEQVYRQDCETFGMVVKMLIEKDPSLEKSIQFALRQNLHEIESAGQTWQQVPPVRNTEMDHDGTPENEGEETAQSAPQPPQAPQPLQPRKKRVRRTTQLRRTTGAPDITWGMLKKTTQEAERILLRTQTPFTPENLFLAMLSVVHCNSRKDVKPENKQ
UniProt Q9GZS1, whole entry, looked up: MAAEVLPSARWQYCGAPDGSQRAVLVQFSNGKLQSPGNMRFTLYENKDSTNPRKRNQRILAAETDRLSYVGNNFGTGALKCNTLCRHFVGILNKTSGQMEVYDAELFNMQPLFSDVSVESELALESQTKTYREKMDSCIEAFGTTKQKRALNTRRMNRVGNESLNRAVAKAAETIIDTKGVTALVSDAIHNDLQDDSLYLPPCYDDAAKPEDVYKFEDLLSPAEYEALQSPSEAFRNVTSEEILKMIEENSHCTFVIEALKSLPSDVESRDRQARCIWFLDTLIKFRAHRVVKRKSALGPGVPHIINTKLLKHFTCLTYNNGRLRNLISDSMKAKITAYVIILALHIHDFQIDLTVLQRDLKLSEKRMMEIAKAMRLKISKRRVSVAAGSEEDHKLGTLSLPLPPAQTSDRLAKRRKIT

Tests used:
Assay in all cases: log2 fold change, soluble protein after heating vs DMSO (PISA); higher = thermal stabilisation; K562 cells, 10 uM, 30 min; active = over 0.2 and 3.5 SD of the protein, either way, in both replicates (recomputed)
[1] = compound: Cc1cccc(CC(=O)N2CCc3c2ccc(-c2cn(C)c4ncnc(N)c24)c3F)n1
Procedure, shortened: (§1)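 Quantification of soluble protein used TMTpro 16plex LC-MS/MS, with channel sums equalised. Samples were the supernatant after 21,000xg for 90 min of pooled aliquots from K562 cells (2×10^6 cells/mL) treated with 10 μM compound for 30 min, heated for 3 min over 48°C-58°C, and extracted in PBS with 0.5% NP-40 at 4°C. Values, from duplicates, describe thermal stability against control samples on a log2 fold-change scale.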

nilotinib = compound: Cc1cn(-c2cc(NC(=O)c3ccc(C)c(Nc4nccc(-c5cccnc5)n4)c3)cc(C(F)(F)F)c2)cn1 [nilotinib]
Procedure, shortened: as §1

[2] = compound: Cc1nc(Nc2n[nH]c3c2CN(C(=O)N[C@H](CN(C)C)c2ccccc2)C3(C)C)c2sccc2n1
Procedure, shortened: as §1

dasatinib = compound: Cc1nc(Nc2ncc(C(=O)Nc3c(C)cccc3Cl)s2)cc(N2CCN(CCO)CC2)n1 [dasatinib]
Procedure, shortened: as §1

[3] = compound: Cc1ncc(-c2ccnc(Nc3ccc(S(C)(=O)=O)cc3)n2)n1C(C)C
Procedure, shortened: as §1

[4] = compound: Cn1cc(-c2ccc3c(c2)CCN3C(=O)Cc2cccc(C(F)(F)F)c2)c2c(N)ncnc21
Procedure, shortened: as §1

[5] = compound: Cn1cc(-c2ccc3nnc(C(F)(F)c4ccc5ncccc5c4)n3n2)cn1
Procedure, shortened: as §1

tipifarnib = compound: Cn1cncc1[C@@](N)(c1ccc(Cl)cc1)c1ccc2c(c1)c(-c1cccc(Cl)c1)cc(=O)n2C [tipifarnib]
Procedure, shortened: as §1

mubritinib = compound: FC(F)(F)c1ccc(/C=C/c2nc(COc3ccc(CCCCn4ccnn4)cc3)co2)cc1 [mubritinib]
Procedure, shortened: as §1

bafetinib = compound: Cc1ccc(NC(=O)c2ccc(CN3CC[C@H](N(C)C)C3)c(C(F)(F)F)c2)cc1Nc1nccc(-c2cncnc2)n1 [bafetinib]
Procedure, shortened: as §1

Measured: log2 fold change

POLR2L (UniProt P62875)
inactive: [1] 0.075 | nilotinib -0.023 | [2] 0.014 | dasatinib -0.08 | [3] 0.126 | [4] -0.133 | [5] -0.04 | tipifarnib -0.112 | mubritinib -0.065

PLIN3 isoform 2 (UniProt O60664)
inactive: bafetinib -0.401 | tipifarnib 0.067 | mubritinib -0.036

PODXL (UniProt O00592)
inactive: [1] 0.308

POF1B isoform 1 (UniProt Q8WVV4)
inactive: bafetinib 0.58 | nilotinib -0.379 | [2] 0.015 | dasatinib -0.561 | [3] -0.188 | mubritinib -0.163

PPM1B isoform 2 (UniProt O75688)
inactive: bafetinib -0.011 | mubritinib 0.184

POLR1B isoform 3 (UniProt Q9H9Y6)
inactive: [1] 0 | nilotinib -0.256 | [2] -0.025 | dasatinib -0.029 | [3] -0.295 | [4] -0.13 | [5] -0.24 | mubritinib -0.093

POLB (UniProt P06746)
inactive: [1] -0.081 | nilotinib -0.103 | [2] -0.134 | dasatinib -0.04 | [3] 0.009 | [4] 0.143 | [5] -0.133 | tipifarnib 0.043

Retrieved one by one from the list above, two records:
POLB (UniProt P06746)
inactive: [1] -0.081 | nilotinib -0.103 | [2] -0.134 | dasatinib -0.04 | [3] 0.009 | [4] 0.143 | [5] -0.133 | tipifarnib 0.043

PODXL (UniProt O00592)
inactive: [1] 0.308

(cont.)

PLEKHJ1 (UniProt Q9NW61)
inactive: dasatinib -0.14 | [4] 0.037 | [5] -0.028 | tipifarnib -0.136

PNMT (UniProt P11086)
inactive: dasatinib 0.029 | [4] 0.152 | tipifarnib -0.167

PLPPR3 isoform 3 (UniProt Q6T4P5)
inactive: [1] -0.484 | [4] 0.044 | [5] 0.034

PMS2CL (UniProt Q68D20)
inactive: nilotinib -0.189 | [2] -0.154 | [3] 0.115 | [5] -0.128 | mubritinib -0.054

PLTP (UniProt P55058)
inactive: [1] -0.253 | nilotinib -0.053 | [2] 0.094 | dasatinib 0.02 | [3] -0.048 | [4] -0.254 | tipifarnib 0.159 | mubritinib -0.088

POMT1 (UniProt Q9Y6A1)
inactive: dasatinib 0.013 | mubritinib 0.025

PM20D2 (UniProt Q8IYS1)
inactive: dasatinib -0.082 | [5] -0.033

POGZ (UniProt Q7Z3K3)
inactive: [1] 0.174 | dasatinib -0.318 | [4] 0.072 | [5] 0.061 | tipifarnib -0.124

POLE2 (UniProt P56282)
inactive: [1] -0.031 | [5] -0.013

POT1 (UniProt Q9NUX5)
inactive: bafetinib 0.006 | nilotinib -0.088 | [2] -0.02 | [3] 0.025 | [5] 0.134 | mubritinib -0.123

PLXND1 (UniProt Q9Y4D7)
inactive: bafetinib 0.139 | dasatinib -0.08 | [5] 0.155 | mubritinib 0.104

PPIG (UniProt Q13427)
inactive: bafetinib 0.193 | dasatinib -0.008 | [5] -0.199 | tipifarnib -0.088 | mubritinib -0.134

PPHLN1 isoform 3 (UniProt Q8NEY8)
inactive: [4] -0.117

POMT2 (UniProt Q9UKY4)
inactive: bafetinib 0.125 | dasatinib -0.045 | [4] -0.079 | [5] 0.006 | tipifarnib 0.147

POLR1E isoform 1 (UniProt Q9GZS1)
inactive: dasatinib -0.05 | [5] -0.126 | tipifarnib 0.207 | mubritinib -0.178

PLSCR3 (UniProt Q9NRY6)
inactive: [1] -0.02 | nilotinib 0.097 | [2] -0.101 | [3] -0.079 | [4] 0.067

POLRMT (UniProt O00411)
inactive: dasatinib 0.063

POLG, A0A3B3IS91
inactive: dasatinib 0.044 | mubritinib -0.106
